In the supplement of paper PMC10849652:
The list shows a part of the results.

Chains of the proteins cited; added tags and fusions are not shown. Lines headed by an entry give the natural chain unless they say otherwise; changes in a name come on top.
UniProt Q9NPD8: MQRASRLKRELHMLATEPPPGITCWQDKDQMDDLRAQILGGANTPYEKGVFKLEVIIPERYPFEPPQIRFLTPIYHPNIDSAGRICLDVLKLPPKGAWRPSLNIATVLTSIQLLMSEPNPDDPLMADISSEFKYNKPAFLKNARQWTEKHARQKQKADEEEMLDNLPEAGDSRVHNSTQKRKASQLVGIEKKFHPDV
UniProt Q96RT7, whole entry, looked up: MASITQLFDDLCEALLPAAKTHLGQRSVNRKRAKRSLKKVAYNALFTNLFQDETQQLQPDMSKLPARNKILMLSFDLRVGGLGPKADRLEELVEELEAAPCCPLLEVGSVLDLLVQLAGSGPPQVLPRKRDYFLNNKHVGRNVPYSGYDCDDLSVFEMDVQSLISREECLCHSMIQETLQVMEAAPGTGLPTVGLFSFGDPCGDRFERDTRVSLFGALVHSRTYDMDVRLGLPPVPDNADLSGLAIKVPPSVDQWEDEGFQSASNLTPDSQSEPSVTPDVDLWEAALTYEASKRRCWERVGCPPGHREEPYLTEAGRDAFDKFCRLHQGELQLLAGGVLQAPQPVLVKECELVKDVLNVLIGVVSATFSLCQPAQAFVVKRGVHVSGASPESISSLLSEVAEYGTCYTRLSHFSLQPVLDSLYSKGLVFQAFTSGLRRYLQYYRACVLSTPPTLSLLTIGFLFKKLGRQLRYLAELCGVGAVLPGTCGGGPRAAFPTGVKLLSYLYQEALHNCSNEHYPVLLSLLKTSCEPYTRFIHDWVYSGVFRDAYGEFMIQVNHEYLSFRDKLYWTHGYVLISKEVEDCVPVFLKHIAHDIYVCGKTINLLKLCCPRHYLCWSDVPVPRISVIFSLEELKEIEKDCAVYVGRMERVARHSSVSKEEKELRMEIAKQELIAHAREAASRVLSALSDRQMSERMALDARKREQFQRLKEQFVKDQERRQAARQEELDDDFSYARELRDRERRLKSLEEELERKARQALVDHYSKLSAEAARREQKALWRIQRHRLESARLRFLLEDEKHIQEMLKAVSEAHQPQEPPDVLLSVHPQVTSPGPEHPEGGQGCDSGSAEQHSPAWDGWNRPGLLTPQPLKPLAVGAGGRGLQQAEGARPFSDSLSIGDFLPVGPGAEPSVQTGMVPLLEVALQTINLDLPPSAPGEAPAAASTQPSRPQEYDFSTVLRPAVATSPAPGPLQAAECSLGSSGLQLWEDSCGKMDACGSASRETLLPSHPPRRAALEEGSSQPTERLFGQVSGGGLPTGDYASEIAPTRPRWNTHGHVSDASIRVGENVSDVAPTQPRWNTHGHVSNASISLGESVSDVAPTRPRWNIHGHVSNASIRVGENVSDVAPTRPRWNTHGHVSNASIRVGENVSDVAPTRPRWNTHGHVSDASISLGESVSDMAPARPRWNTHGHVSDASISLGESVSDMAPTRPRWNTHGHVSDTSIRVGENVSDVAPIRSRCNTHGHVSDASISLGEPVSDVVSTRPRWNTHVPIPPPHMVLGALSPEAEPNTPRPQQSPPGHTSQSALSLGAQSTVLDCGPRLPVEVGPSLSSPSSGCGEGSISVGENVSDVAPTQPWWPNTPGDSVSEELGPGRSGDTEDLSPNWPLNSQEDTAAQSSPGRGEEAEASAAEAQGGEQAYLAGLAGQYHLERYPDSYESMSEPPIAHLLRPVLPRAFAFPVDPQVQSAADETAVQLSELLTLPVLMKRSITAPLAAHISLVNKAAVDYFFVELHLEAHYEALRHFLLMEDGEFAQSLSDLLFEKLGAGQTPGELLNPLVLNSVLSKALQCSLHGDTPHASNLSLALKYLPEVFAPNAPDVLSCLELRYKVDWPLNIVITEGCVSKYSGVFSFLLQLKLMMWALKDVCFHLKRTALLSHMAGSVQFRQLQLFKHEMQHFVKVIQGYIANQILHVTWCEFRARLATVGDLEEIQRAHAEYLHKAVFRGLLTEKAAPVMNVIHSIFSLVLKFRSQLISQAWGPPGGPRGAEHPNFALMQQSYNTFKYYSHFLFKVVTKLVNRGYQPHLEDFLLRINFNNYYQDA
UniProt P04818: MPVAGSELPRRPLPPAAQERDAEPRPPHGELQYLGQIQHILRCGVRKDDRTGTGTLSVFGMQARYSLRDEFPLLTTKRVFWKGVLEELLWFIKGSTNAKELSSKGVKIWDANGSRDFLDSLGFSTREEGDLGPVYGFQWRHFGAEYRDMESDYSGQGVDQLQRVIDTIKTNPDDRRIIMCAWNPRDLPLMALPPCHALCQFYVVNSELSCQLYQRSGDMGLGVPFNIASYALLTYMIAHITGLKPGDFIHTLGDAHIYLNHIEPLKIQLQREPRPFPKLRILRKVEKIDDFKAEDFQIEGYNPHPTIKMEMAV
UniProt P49459, whole entry, looked up: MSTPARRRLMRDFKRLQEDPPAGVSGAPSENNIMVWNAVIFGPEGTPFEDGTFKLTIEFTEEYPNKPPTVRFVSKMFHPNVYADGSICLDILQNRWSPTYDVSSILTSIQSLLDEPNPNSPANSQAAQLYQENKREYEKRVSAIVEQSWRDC
UniProt O15042: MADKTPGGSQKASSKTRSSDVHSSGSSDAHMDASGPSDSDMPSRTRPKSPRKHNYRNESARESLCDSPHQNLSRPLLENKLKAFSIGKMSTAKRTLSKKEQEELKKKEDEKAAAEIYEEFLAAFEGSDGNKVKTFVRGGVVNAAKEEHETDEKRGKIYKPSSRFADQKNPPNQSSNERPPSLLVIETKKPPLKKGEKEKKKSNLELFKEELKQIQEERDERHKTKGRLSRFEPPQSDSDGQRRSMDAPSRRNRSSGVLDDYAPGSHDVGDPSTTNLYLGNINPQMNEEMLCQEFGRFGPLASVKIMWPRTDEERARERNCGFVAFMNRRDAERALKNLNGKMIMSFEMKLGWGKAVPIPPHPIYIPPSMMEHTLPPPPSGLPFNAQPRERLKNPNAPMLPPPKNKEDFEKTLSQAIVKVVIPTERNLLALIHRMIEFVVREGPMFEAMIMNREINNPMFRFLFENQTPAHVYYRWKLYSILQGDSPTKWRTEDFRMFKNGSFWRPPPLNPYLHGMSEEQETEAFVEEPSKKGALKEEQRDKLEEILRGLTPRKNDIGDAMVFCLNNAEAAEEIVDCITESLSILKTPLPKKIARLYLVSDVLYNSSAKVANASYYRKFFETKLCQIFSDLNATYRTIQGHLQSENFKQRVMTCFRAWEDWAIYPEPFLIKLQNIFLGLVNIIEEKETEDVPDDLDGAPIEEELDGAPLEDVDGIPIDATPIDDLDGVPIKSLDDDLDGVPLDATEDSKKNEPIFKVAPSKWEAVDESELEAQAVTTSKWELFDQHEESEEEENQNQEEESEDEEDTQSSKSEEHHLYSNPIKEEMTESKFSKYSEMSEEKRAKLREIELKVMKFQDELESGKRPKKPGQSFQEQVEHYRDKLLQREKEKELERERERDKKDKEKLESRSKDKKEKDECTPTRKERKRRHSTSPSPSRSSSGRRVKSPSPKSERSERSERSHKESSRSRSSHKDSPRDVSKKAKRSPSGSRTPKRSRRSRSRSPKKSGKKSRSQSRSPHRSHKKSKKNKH
UniProt Q9NZI7: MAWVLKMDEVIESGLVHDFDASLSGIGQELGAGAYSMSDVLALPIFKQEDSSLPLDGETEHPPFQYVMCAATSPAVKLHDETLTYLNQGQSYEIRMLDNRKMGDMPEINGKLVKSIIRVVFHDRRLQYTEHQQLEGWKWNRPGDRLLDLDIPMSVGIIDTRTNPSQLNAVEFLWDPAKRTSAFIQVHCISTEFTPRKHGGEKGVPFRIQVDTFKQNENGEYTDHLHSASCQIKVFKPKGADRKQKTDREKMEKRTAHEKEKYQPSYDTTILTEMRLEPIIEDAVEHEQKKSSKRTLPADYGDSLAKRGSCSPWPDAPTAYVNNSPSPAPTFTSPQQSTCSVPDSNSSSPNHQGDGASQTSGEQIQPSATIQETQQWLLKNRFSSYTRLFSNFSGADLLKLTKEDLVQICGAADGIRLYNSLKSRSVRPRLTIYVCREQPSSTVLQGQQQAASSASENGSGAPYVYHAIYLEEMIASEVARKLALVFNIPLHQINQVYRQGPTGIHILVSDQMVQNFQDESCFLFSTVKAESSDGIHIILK
UniProt P61086: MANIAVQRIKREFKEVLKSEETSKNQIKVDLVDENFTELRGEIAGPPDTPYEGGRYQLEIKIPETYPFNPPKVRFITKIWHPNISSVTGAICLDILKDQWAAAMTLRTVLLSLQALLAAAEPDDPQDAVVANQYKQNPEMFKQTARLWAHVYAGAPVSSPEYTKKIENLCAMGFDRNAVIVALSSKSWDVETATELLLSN
UniProt Q9BZX2: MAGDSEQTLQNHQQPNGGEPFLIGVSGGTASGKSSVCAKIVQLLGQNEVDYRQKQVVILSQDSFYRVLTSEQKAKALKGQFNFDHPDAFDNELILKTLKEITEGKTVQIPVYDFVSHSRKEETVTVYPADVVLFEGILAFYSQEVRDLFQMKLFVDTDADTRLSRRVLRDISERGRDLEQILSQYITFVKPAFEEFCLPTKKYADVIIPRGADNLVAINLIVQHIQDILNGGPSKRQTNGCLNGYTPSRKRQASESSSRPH
UniProt Q9UJT1: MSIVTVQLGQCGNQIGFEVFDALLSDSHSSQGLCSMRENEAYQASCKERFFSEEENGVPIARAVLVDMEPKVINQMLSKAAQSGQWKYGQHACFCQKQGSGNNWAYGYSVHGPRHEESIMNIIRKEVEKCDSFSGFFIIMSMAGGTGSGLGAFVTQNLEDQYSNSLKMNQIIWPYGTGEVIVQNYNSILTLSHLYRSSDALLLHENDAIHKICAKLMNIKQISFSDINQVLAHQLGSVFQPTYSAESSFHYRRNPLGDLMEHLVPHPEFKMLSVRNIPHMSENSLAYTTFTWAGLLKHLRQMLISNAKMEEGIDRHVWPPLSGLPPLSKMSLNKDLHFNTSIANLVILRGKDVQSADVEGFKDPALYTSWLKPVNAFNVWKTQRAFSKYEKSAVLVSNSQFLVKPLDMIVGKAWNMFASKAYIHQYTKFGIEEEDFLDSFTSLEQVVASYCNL
UniProt Q12792, whole entry, looked up: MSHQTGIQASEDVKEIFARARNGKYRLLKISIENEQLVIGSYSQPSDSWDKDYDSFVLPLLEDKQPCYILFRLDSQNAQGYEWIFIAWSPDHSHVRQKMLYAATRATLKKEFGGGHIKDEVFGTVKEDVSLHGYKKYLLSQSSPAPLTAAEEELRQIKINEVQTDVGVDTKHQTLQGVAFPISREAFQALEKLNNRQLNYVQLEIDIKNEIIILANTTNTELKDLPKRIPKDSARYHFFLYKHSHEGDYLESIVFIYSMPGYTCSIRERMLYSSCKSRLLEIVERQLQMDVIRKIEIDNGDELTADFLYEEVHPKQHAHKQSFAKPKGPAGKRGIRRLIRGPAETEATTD
UniProt Q16222: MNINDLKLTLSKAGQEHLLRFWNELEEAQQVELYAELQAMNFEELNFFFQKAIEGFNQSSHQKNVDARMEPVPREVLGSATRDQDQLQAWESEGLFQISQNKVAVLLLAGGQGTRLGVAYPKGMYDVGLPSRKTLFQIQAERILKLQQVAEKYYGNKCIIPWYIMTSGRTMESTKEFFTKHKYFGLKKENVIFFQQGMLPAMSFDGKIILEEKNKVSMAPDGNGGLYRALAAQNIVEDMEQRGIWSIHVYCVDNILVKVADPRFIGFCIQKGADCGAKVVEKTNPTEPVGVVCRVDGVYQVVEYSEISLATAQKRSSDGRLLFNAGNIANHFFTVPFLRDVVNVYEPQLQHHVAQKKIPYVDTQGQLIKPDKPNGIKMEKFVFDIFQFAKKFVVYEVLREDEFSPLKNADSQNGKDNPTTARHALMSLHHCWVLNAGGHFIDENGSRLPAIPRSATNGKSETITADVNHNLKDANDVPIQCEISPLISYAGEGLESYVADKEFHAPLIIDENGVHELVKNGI
UniProt Q9UMX0, whole entry, looked up: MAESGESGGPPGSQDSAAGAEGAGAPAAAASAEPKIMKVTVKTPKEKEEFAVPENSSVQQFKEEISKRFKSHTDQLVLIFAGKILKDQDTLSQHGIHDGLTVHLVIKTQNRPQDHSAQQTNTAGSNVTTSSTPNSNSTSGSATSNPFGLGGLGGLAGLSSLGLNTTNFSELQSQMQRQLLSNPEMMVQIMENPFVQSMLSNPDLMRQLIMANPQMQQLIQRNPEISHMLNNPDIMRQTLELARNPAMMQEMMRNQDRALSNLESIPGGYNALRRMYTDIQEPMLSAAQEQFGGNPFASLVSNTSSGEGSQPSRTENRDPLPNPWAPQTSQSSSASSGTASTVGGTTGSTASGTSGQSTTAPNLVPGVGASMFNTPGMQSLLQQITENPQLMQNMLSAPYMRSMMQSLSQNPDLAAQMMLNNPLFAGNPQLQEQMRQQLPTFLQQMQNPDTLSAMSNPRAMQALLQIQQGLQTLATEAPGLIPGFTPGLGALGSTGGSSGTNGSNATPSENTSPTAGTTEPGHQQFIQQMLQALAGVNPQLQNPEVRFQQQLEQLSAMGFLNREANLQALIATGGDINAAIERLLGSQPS
UniProt O14933: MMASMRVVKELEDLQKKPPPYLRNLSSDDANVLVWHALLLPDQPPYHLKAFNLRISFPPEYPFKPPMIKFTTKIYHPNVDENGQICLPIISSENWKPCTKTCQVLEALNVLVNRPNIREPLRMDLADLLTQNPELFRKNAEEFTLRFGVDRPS

Legend:
Experiment in all cases: log2 fold change, soluble protein after heating vs DMSO (PISA); higher = thermal stabilisation; K562 lysate, 10 uM; active = over 0.2 and 3.5 SD of the protein, either way, in both replicates (recomputed)
ibrutinib = compound: C=CC(=O)N1CCC[C@@H](n2nc(-c3ccc(Oc4ccccc4)cc3)c3c(N)ncnc32)C1 [ibrutinib]
Method in brief: (§1)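 A 30 min treatment with 10 μM compound was applied to crude K562 extract at 1 mg/mL protein in PBS pH 7.4 with 1 mM MgCl2. Heating for 3 min spanned 48°C-58°C, after which aliquots were pooled, adjusted to 0.5% NP-40 at 4°C and spun at 21,000xg for 90 min. TMTpro 16plex LC-MS/MS of the supernatant, with channel sums equalised, gave values recorded as log-two fold change in thermal stability against solvent controls, from duplicates.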

[1] = compound: CC(=O)c1cnc2ccc(-c3cc(Cl)c(O)c(Cl)c3)nc2c1N[C@H]1CC[C@H](CN(C)C)CC1
Method in brief: as §1

ralimetinib = compound: CC(C)(C)Cn1c(N)nc2ccc(-c3[nH]c(C(C)(C)C)nc3-c3ccc(F)cc3)nc21 [ralimetinib]
Method in brief: as §1

[2] = compound: CC(C)(O)CC(=O)NCCn1ccc2ncnc(Nc3ccc(Oc4cccc(C(F)(F)F)c4)c(Cl)c3)c21
Method in brief: as §1

[3] = compound: CC(C)C1=C2N=C(C=C(N2N=C1)NCC3=CC=CC=C3)NCCCCCCN
Method in brief: as §1

[4] = compound: CC1=C(C(CC(=O)N1)C2=CC=C(C=C2)C(F)(F)F)C(=O)NC3=C(C=C4C(=C3)C=NN4)F
Method in brief: as §1

[5] = compound: CC1=C(C2=C(C=C1)C(=O)C3=CC=CC=C3N2CCCN)C
Method in brief: as §1

[6] = compound: CC1=C(C=C(C=C1)NC(=O)C2=CC(=CC=C2)C(C)(C)C#N)NC3=CC4=C(C=C3)N=CN(C4=O)C
Method in brief: as §1

[7] = compound: CC1=C(C=C(C=C1)NC(=O)C2=CC(=CC=C2)N(C)C)NC(=O)C3=CC=C(C=C3)O
Method in brief: as §1

[8] = compound: CC1=CC=C(C=C1)SC2=C3C=C(SC3=CN=C2)C(=O)N
Method in brief: as §1

vemurafenib = compound: CCCS(=O)(=O)Nc1ccc(F)c(C(=O)c2c[nH]c3ncc(-c4ccc(Cl)cc4)cc23)c1F [vemurafenib]
Method in brief: as §1

[9] = compound: CCCS(=O)(=O)Nc1ccc(F)c(C(=O)c2c[nH]c3ncc(Cl)cc23)c1F
Method in brief: as §1

barasertib = compound: CCN(CCCOc1ccc2c(Nc3cc(CC(=O)Nc4cccc(F)c4)[nH]n3)ncnc2c1)CCOP(=O)(O)O [barasertib]
Method in brief: as §1

[10] = compound: CC[C@@H]1C(=O)N(C)c2cnc(Nc3ccc(C(=O)NC4CCN(C)CC4)cc3OC)nc2N1C1CCCC1
Method in brief: as §1

volasertib = compound: CC[C@@H]1C(=O)N(C)c2cnc(Nc3ccc(C(=O)N[C@H]4CC[C@H](N5CCN(CC6CC6)CC5)CC4)cc3OC)nc2N1C(C)C [volasertib]
Method in brief: as §1

[11] = compound: CCn1c(C(=O)N(C2CC2)C2CC2)cc2c3c(ncn3C)c(Nc3cc(C)n(C)n3)nc21
Method in brief: as §1

[12] = compound: CCn1cc(-c2ccnc3[nH]c(-c4cccc(CN(C)C)c4)cc23)c(-c2ccc(NC(=O)N(C)C)cc2)n1
Method in brief: as §1

[13] = compound: CN1CCC(CNc2ccc3ncc(-c4cccc(OC(F)(F)F)c4)n3n2)CC1
Method in brief: as §1

saracatinib = compound: CN1CCN(CCOc2cc(OC3CCOCC3)c3c(Nc4c(Cl)ccc5c4OCO5)ncnc3c2)CC1 [saracatinib]
Method in brief: as §1

sotrastaurin = compound: CN1CCN(c2nc(C3=C(c4c[nH]c5ccccc45)C(=O)NC3=O)c3ccccc3n2)CC1 [sotrastaurin]
Method in brief: as §1

Row | Target | log2 fold change (ibrutinib) | log2 fold change [1] | log2 fold change (ralimetinib) | log2 fold change [2] | log2 fold change [3] | log2 fold change [4] | log2 fold change [5] | log2 fold change [6] | log2 fold change [7] | log2 fold change [8] | log2 fold change (vemurafenib) | log2 fold change [9] | log2 fold change (barasertib) | log2 fold change [10] | log2 fold change (volasertib) | log2 fold change [11] | log2 fold change [12] | log2 fold change [13] | log2 fold change (saracatinib) | log2 fold change (sotrastaurin)
1 | UBE2T (UniProt Q9NPD8) | inactive: -0.007 | inactive: 0.031 | inactive: 0.009 | inactive: 0.004 | inactive: -0.054 | inactive: -0.01 | inactive: -0.009 | inactive: 0.032 | inactive: 0 | inactive: 0.026 | inactive: -0.01 | inactive: 0.019 | inactive: 0.054 | inactive: -0.008 | inactive: -0.016 | inactive: 0.017 | inactive: -0.017 | inactive: 0.086 | inactive: -0.026 | inactive: -0.015
2 | TUBGCP6 (UniProt Q96RT7) | inactive: 0.09 | inactive: -0.006 | inactive: -0.043 | inactive: 0.065 | inactive: 0.032 | inactive: 0.015 | inactive: -0.069 | inactive: -0.2 | inactive: 0.099 | inactive: -0.11 | inactive: -0.058 | inactive: -0.046 | inactive: 0.025 | inactive: -0.062 | inactive: -0.032 | inactive: -0.13 | inactive: -0.218 | inactive: 0.031 | inactive: -0.024 | inactive: -0.002
3 | TYMS (UniProt P04818) | inactive: -0.041 | inactive: -0.017 | inactive: 0.014 | inactive: 0.029 | inactive: 0.01 | inactive: 0.001 | inactive: 0.043 | inactive: -0.005 | inactive: -0.001 | inactive: -0.022 | inactive: -0.009 | inactive: 0.006 | inactive: 0.022 | inactive: -0.053 | inactive: -0.041 | inactive: -0.004 | inactive: -0.035 | inactive: -0.064 | inactive: 0 | inactive: 0.008
4 | UBE2A (UniProt P49459) | inactive: -0.006 | inactive: 0.007 | inactive: -0.015 | inactive: 0.009 | inactive: -0.026 | inactive: -0.005 | inactive: 0.023 | inactive: 0.016 | inactive: 0.024 | inactive: -0.023 | inactive: 0.038 | inactive: -0.007 | inactive: 0.029 | inactive: -0.042 | inactive: -0.014 | inactive: 0.035 | inactive: 0.072 | inactive: -0.06 | inactive: -0.033 | inactive: -0.022
5 | U2SURP (UniProt O15042) | inactive: -0.032 | inactive: 0.012 | inactive: 0.021 | inactive: 0.001 | inactive: -0.022 | inactive: -0.001 | inactive: -0.018 | inactive: -0.065 | inactive: 0.014 | inactive: -0.016 | inactive: -0.006 | inactive: 0.034 | inactive: -0.014 | inactive: -0.002 | inactive: -0.019 | inactive: 0.019 | inactive: 0.013 | inactive: -0.031 | inactive: -0.005 | inactive: -0.013
6 | UBP1 (UniProt Q9NZI7) | inactive: -0.006 | inactive: 0.056 | inactive: 0.024 | inactive: -0.004 | inactive: 0.048 | inactive: -0.028 | inactive: 0.047 | inactive: 0.03 | inactive: -0.037 | inactive: 0.004 | inactive: -0.014 | inactive: 0.117 | inactive: 0.008 | inactive: 0.01 | inactive: -0.017 | inactive: 0.007 | active: 0.228 | inactive: -0.24 | inactive: -0.008 | inactive: -0.063
7 | UBA3 (UniProt Q8TBC4) | inactive: 0.006 | inactive: 0.015 | inactive: 0.016 | inactive: -0.009 | inactive: -0.013 | inactive: -0.004 | inactive: -0.018 | inactive: -0.021 | inactive: 0.006 | inactive: 0.002 | inactive: 0.007 | inactive: 0.025 | inactive: -0.008 | inactive: -0.035 | inactive: -0.013 | inactive: 0.024 | inactive: -0.011 | inactive: 0.047 | inactive: -0.017 | inactive: 0.004
8 | UBE2K (UniProt P61086) | inactive: 0.017 | inactive: -0.007 | inactive: -0.007 | inactive: -0.054 | inactive: -0.019 | inactive: -0.021 | inactive: 0 | inactive: 0.043 | inactive: -0.008 | inactive: -0.006 | inactive: -0.005 | inactive: -0.023 | inactive: -0.031 | inactive: 0.057 | inactive: 0.026 | inactive: -0.017 | inactive: 0.021 | inactive: 0.034 | inactive: -0.023 | inactive: -0.028
9 | UCK2 (UniProt Q9BZX2) | inactive: 0.073 | inactive: 0.037 | inactive: 0.036 | inactive: 0.022 | inactive: 0.019 | inactive: 0.022 | inactive: -0.002 | inactive: -0.015 | inactive: 0.008 | inactive: -0.01 | inactive: 0.027 | inactive: 0.011 | inactive: 0.012 | inactive: -0.037 | inactive: -0.051 | inactive: -0.012 | inactive: -0.036 | inactive: 0.063 | inactive: 0.03 | inactive: 0.024
10 | TUBD1 (UniProt Q9UJT1) | inactive: 0.185 | inactive: -0.128 | inactive: -0.048 | inactive: -0.044 | inactive: -0.116 | inactive: 0.045 | inactive: -0.084 | inactive: -0.077 | inactive: 0.066 | inactive: 0.155 | inactive: -0.056 | inactive: 0.007 | inactive: -0.391 | inactive: -0.066 | inactive: -0.023 | inactive: -0.029 | inactive: -0.044 | inactive: 0.12 | inactive: 0.015 | inactive: 0.133
11 | UBA6 | inactive: -0.003 | inactive: 0.002 | inactive: 0.007 | inactive: -0.007 | inactive: -0.011 | inactive: -0.006 | inactive: -0.006 | inactive: -0.01 | inactive: 0.013 | inactive: 0.009 | inactive: 0.009 | inactive: -0.002 | inactive: 0.051 | inactive: -0.04 | inactive: -0.037 | inactive: 0.001 | inactive: 0.061 | inactive: -0.017 | inactive: 0.02 | inactive: 0.013
12 | TWF1 (UniProt Q12792) | inactive: 0.018 | inactive: 0.003 | inactive: 0.046 | inactive: -0.061 | inactive: -0.029 | inactive: 0.033 | inactive: -0.009 | inactive: -0.023 | inactive: -0.036 | inactive: 0.004 | inactive: 0.01 | inactive: -0.008 | inactive: -0.032 | inactive: -0.056 | inactive: 0.023 | inactive: 0.068 | inactive: -0.062 | inactive: 0.067 | inactive: -0.046 | inactive: 0.038
13 | UAP1 (UniProt Q16222) | inactive: -0.011 | inactive: 0.004 | inactive: 0.027 | inactive: 0.009 | inactive: 0.013 | inactive: -0.004 | inactive: 0.008 | inactive: -0.009 | inactive: -0.01 | inactive: 0.027 | inactive: 0.009 | inactive: -0.013 | inactive: 0.006 | inactive: -0.071 | inactive: -0.04 | inactive: 0.02 | inactive: -0.027 | inactive: 0.003 | inactive: 0.031 | inactive: 0.004
14 | TUBGCP4 (UniProt Q9UGJ1) | inactive: 0 | inactive: -0.051 | inactive: 0.052 | inactive: -0.037 | inactive: 0 | inactive: 0.021 | inactive: -0.048 | inactive: -0.002 | inactive: 0.05 | inactive: 0.043 | inactive: 0.088 | inactive: 0.028 | inactive: 0.116 | inactive: 0.039 | inactive: -0.027 | inactive: 0.026 | inactive: 0.013 | inactive: -0.077 | inactive: 0.025 | inactive: 0.109
15 | UBQLN1 (UniProt Q9UMX0) | inactive: 0.087 | inactive: -0.017 | inactive: 0.019 | inactive: -0.04 | inactive: -0.035 | inactive: -0.02 | inactive: -0.028 | inactive: 0.017 | inactive: 0.007 | inactive: -0.011 | inactive: 0.013 | inactive: 0.011 | inactive: 0.204 | inactive: 0.059 | inactive: 0.012 | inactive: -0.068 | inactive: -0.043 | inactive: 0.014 | inactive: -0.007 | inactive: 0.035
16 | UBE2L6 (UniProt O14933) | inactive: 0.152 | inactive: 0.012 | inactive: -0.002 | inactive: -0.041 | inactive: -0.009 | inactive: -0.033 | inactive: -0.014 | inactive: -0.019 | inactive: -0.007 | inactive: 0.002 | inactive: 0.031 | inactive: -0.035 | inactive: 0.229 | inactive: 0.041 | inactive: 0.008 | inactive: 0.022 | inactive: 0.037 | inactive: -0.115 | inactive: -0.034 | inactive: -0.03

Taken from above:
UBE2K (UniProt P61086) – log2 fold change [2]: inactive: -0.054
U2SURP (UniProt O15042) – log2 fold change [3]: inactive: -0.022
